Laboratory results as given in PubChem BioAssay AID2551 (National Center for Advancing Translational Sciences (NCATS), 2010).
Out of some 310,000 compounds screened, about 17,000 (5.5%) were called active. Inconclusive means that the source gave no clear call. Such entries were picked first, then a sample of the others. Calls follow the shape of the dose curve; as a rule, active = well fitted inhibition curve with a large enough effect; inconclusive = small, poorly fitted or top-dose-only effect, or effect the other way; inactive = no such curve, though single readings can be large or run the other way. Potencies beside an inconclusive call are fits to weak or partial responses and may not hold up.

Sequences of proteins named here, by UniProt entry; tags and fusion partners are left off. A change or cut given only in a name is not applied to a line headed by its entry.
UniProt P51450: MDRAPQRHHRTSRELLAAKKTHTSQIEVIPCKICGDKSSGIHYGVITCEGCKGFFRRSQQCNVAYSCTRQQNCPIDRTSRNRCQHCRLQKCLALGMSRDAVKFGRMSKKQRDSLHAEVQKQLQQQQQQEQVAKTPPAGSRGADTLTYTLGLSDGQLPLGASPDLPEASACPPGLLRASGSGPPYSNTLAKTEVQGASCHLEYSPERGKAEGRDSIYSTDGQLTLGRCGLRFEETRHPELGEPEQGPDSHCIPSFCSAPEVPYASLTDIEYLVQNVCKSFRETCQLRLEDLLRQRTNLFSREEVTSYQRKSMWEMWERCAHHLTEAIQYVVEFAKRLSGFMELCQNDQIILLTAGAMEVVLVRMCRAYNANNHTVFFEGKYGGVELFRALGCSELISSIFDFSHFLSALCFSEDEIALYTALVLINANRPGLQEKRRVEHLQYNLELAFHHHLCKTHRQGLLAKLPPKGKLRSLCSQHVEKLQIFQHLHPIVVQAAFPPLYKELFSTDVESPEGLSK

Molecular target: Nuclear receptor ROR-gamma (Mus musculus) (UniProt P51450)
Experiment: qHTS for inhibitors of ROR gamma transcriptional activity; also: nearly all actives have a fitted effect of over 60% in size
Details: Drosophila S2 Gal4-RORgamma UAS-luciferase reporter, 20 h; activity change, negative = inhibition: at 53.6 µM (top of the series)
How it was run: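 Luciferase reporter read in Schneider cells carrying Gal4-RORγ (mouse) and UAS-Photinus luciferase; cells given compound 1 h before 700 uM copper sulfate induction, then incubated 20 h at ambient temperature.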
% is scaled to controls: 0 for no effect and ±100 for the full control effect; potency is read from the fitted curve at half-maximal effect.

| SMILES | Potency | activity change, negative = inhibition |
| --- | --- | --- |
| CCNC(=S)N=Nc1c(O)n(Cc2ccc(Cl)cc2)c2ccccc12 | active: 4.47 µM | – |
| C=CC(C)(C)c1[nH]c2ccccc2c1C1=C(O)C(=O)C(c2c[nH]c3c(CC=C(C)C)cccc23)=C(O)C1=O | – | inactive: 2.74% |
| COc1ccc(OC)c(Nc2c3ccccc3nc3ccccc23)c1 | inconclusive: 35.5 µM [inhibitor, single point] | – |
| O=S1(=O)CCOCCCN1Cc1ccc(Cl)cc1 | – | inactive: -4.97% |
| COCCOC(=O)c1c(C)n(C)c2ccc(OC(=O)c3ccccc3OC)cc12 | – | inactive: -7.29% |
| Cc1ccc2c(c1)c(N=O)c(O)n2Cc1ccc(Cl)cc1 | inconclusive: 22.4 µM [inhibitor, single point] | – |
| NS(=O)(=O)c1ccc(CCn2c(=S)[nH]c3ccccc3c2=O)cc1 | inconclusive: 35.5 µM [inhibitor, single point] | – |
| CN(C)c1ccc(/C=C/C(=O)c2ccc3c(c2)OCCO3)cc1[N+](=O)[O-] | inconclusive: 11.2 µM [activator, partial curve] | – |
| COc1ccc(OC)c(S(=O)(=O)Nc2ccccc2SC)c1 | inconclusive: 0.447 µM [inhibitor, partial curve] | – |
| CCOC(=O)Cc1csc(NC(=S)NC(=O)c2cc(OC)c(OC)c(OC)c2)n1 | inconclusive: 10 µM [inhibitor, partial curve] | – |
| CCOc1cccc2c1OC1(CCCCC1)N1N=C(c3cccnc3)CC21 (configuration not stated) | inconclusive: 22.4 µM [inhibitor, single point] | – |
| O=C(CCCSc1nnnn1-c1ccccc1)c1ccc(F)cc1 | inconclusive: 12.6 µM [activator, single point] | – |
| CC(CSc1nc2ccccc2s1)Cn1c(N2CCCC2)nc2c1c(=O)[nH]c(=O)n2C (configuration not stated) | inconclusive: 14.1 µM [activator, single point] | – |
| CCCn1c(NCc2cc(OC)ccc2OC)nc2ccccc21 | active: 5.01 µM | – |
| O=C(O)c1ccccc1/C=N/NC(=S)NC1CCCCC1 | – | inactive: -39.5% |
| O=C1OCCN1C(=O)[C@H]1[C@H](c2ccc(Cl)cc2)C(c2ccc(F)cc2)=NN1c1ccccc1 | – | inactive: 12.8% |
| O=C(Nc1ccncc1)c1cccc(S(=O)(=O)N2CCCC2)c1 | inconclusive: 35.5 µM [activator, single point] | – |
| CC1CCC(C(C)C)C(OC(=O)COC(=O)c2ccc(N)cc2)C1 (configuration not stated) | – | inactive: 32.4% |
| Cc1ccc2c(c1)-c1c(ssc1=S)C(C)(C)N2C(=O)CSC1=NCCS1 | inconclusive: 22.4 µM [inhibitor, single point] | – |
| Nc1ncnc(N2CCOCC2)c1N | – | inactive: 7.71% |
| O=C(C(Sc1ccccc1)c1ccccc1)N1CCOCC1 (configuration not stated) | – | inactive: 5.17% |
| COc1ccc(CC(=O)N/N=C(/C)CC(=O)N(C)c2ccccc2)cc1 | inconclusive: 15.8 µM [inhibitor, single point] | – |
| C=C1C(=O)O[C@@H]2C[C@@H](C)[C@@H]3C=CC(=O)[C@@]3(C)[C@@H](OC(C)=O)[C@H]12 | active: 1.26 µM | – |
| Cn1cc(/C=C/C(=O)N2CCCC(C(=O)c3ccc(C(C)(C)C)cc3)C2)cn1 (configuration not stated) | inconclusive: 15.8 µM [activator, single point] | – |

| SMILES | Potency | activity change, negative = inhibition |
| --- | --- | --- |
| COC(=O)C1=C(C)N(Cc2ccccc2)C(=S)N[C@H]1CCc1ccccc1 | active: 4.47 µM | – |
| COc1ccc(C2(C(=O)Nc3c(C)n(C)n(-c4ccccc4)c3=O)CCCC2)cc1OC | inconclusive: 5.62 µM [activator, partial curve, poor fit] | – |
| COc1ccc(-c2ncccc2O)cc1 | inconclusive: 11.2 µM [activator, single point] | – |
| NC(=O)c1c(NC(=O)Cc2ccccc2)sc2c1CCN(Cc1ccccc1)C2 | inconclusive: 20 µM [activator, partial curve, poor fit] | – |
| COc1ccccc1NC(=O)CSc1nc2c(sc3ccccc32)c(=O)n1CCN(C)C | inconclusive: 35.5 µM [inhibitor, single point] | – |
| COCCNC(=S)N/N=C/c1ccc2c(c1)OCCO2 | active: 10 µM | – |
| CCC(C(=O)NC1CCCCC1)n1c(SCc2ccccc2F)nc2ccncc21 (configuration not stated) | inconclusive: 35.5 µM [inhibitor, single point] | – |
| CCOc1cc(/C=N/NC(=O)c2cccc([N+](=O)[O-])c2)ccc1OS(=O)(=O)c1ccccc1 | active: 7.94 µM | – |
| CC(C)c1nc(=S)c2ccccc2[nH]1 | active: 5.62 µM | – |
| CCc1ccc(Nc2c([N+](=O)[O-])c(=O)oc3ccccc23)cc1 | inconclusive: 17.8 µM [activator, single point] | – |
| COc1ccc(-n2c(SCC(=O)NCC3CCCO3)nc3n[nH]c(C)c3c2=N)cc1 (configuration not stated) | – | inactive: 18.2% |
| COc1ccc(C2CC(c3ccc(F)cc3)=NN2c2ccccc2)cc1OC (configuration not stated) | inconclusive: 0.794 µM [activator, partial curve] | – |
| COc1ccc(Nc2nc3ccccc3nc2NS(=O)(=O)c2ccc(NC(C)=O)cc2)cc1 | – | inactive: 19.5% |
| O=C(O)c1cccc(NC(=S)NC(NC(=O)c2cccc([N+](=O)[O-])c2)C(Cl)(Cl)Cl)c1 (configuration not stated) | – | inactive: 10.8% |
| CCS(=O)(=O)N1CCC(NC(=O)C(Cc2cccc(OC)c2OC)NC(C)=O)CC1 (configuration not stated) | inconclusive: 35.5 µM [activator, single point] | – |
| CCOC(=O)c1ccc(NC(=O)CSc2nnc(CCc3ccc(C)o3)n2-c2ccccc2)cc1 | inconclusive: 35.5 µM [inhibitor, single point] | – |
| COc1ccccc1CNCC(O)(c1ccc(Cl)cc1)c1ccc(Cl)cc1 | inconclusive: 22.4 µM [inhibitor, single point] | – |
| c1cncc(-c2cncnc2NCc2cccs2)c1 | – | inactive: 20% |
| COc1ccc([C@@H]2[C@@H](O)[C@H](O)[C@@H](C)N2C)cc1OC | – | inactive: -0.641% |
| CC(C)Cc1nc2sc3c(c2c(=O)n1N)CC(C)(C)OC3 | inconclusive: 5.01 µM [activator, full curve, poor fit] | – |
| COc1ccc(C=O)cc1OC(=O)N1CCOCC1 | – | inactive: 15.7% |
| O=C(O)/C=C/c1ccc(S(=O)(=O)Nc2ccccc2C(=O)Nc2ccc(F)cc2)cc1 | – | inactive: 9.63% |
| C=CCn1c(=O)c(C(=O)Nc2ccccc2C)c(O)c2ccccc21 | – | inactive: 5.95% |
| Nc1cc(N)nc(SCc2ccccc2)n1 | inconclusive: 22.4 µM [activator, single point] | – |

Rewritten tab-delimited: entries from further up
SMILES	Potency	activity change, negative = inhibition
COc1ccccc1NC(=O)CSc1nc2c(sc3ccccc32)c(=O)n1CCN(C)C	inconclusive: 35.5 µM [inhibitor, single point]	–
COCCNC(=S)N/N=C/c1ccc2c(c1)OCCO2	active: 10 µM	–
CCC(C(=O)NC1CCCCC1)n1c(SCc2ccccc2F)nc2ccncc21 (configuration not stated)	inconclusive: 35.5 µM [inhibitor, single point]	–
CCOc1cc(/C=N/NC(=O)c2cccc([N+](=O)[O-])c2)ccc1OS(=O)(=O)c1ccccc1	active: 7.94 µM	–
CC(C)c1nc(=S)c2ccccc2[nH]1	active: 5.62 µM	–
CCc1ccc(Nc2c([N+](=O)[O-])c(=O)oc3ccccc23)cc1	inconclusive: 17.8 µM [activator, single point]	–
COc1ccc(-n2c(SCC(=O)NCC3CCCO3)nc3n[nH]c(C)c3c2=N)cc1 (configuration not stated)	–	inactive: 18.2%
COc1ccc(C2CC(c3ccc(F)cc3)=NN2c2ccccc2)cc1OC (configuration not stated)	inconclusive: 0.794 µM [activator, partial curve]	–
COc1ccc(Nc2nc3ccccc3nc2NS(=O)(=O)c2ccc(NC(C)=O)cc2)cc1	–	inactive: 19.5%
O=C(O)c1cccc(NC(=S)NC(NC(=O)c2cccc([N+](=O)[O-])c2)C(Cl)(Cl)Cl)c1 (configuration not stated)	–	inactive: 10.8%
CCS(=O)(=O)N1CCC(NC(=O)C(Cc2cccc(OC)c2OC)NC(C)=O)CC1 (configuration not stated)	inconclusive: 35.5 µM [activator, single point]	–
CCOC(=O)c1ccc(NC(=O)CSc2nnc(CCc3ccc(C)o3)n2-c2ccccc2)cc1	inconclusive: 35.5 µM [inhibitor, single point]	–
COc1ccccc1CNCC(O)(c1ccc(Cl)cc1)c1ccc(Cl)cc1	inconclusive: 22.4 µM [inhibitor, single point]	–

Following part

| SMILES | Potency | activity change, negative = inhibition |
| --- | --- | --- |
| CCN(CC)CCNC(=O)c1ccc(NC(=O)c2ccc(Cl)c(S(=O)(=O)N3CCCCCC3)c2)cc1 | inconclusive: 22.4 µM [inhibitor, single point] | – |
| Cc1ccc(CNC(=O)/C=C/c2ccc(S(=O)(=O)NCc3ccco3)cc2)cc1 | inconclusive: 14.1 µM [activator, single point] | – |
| CO[C@H](C(=O)[C@@H](O)[C@@H](C)O)C1Cc2cc3cc(O[C@H]4C[C@@H](O[C@H]5C[C@@H](O)[C@H](O)[C@@H](C)O5)[C@@H](O)[C@@H](C)O4)c(C)c(O)c3c(O)c2C(=O)[C@H]1O[C@H]1C[C@@H](O[C@H]2C[C@@H](O[C@H]3C[C@](C)(O)[C@H](O)[C@@H](C)O3)[C@H](O)[C@@H](C)O2)[C@H](O)[C@@H](C)O1 (some centres not stated) | active: 0.631 µM | – |
| O=C(O)c1ccc(N=Nc2c(O)[nH]c3cc(Cl)ccc23)cc1 | inconclusive: 2.51 µM [activator, partial curve] | – |
| O=C(NCCCN1CCCCC1)C1CC(=O)N(CCc2ccccc2)C1 (configuration not stated) | – | inactive: -16.4% |
| CC(C)(C)NC(=O)c1cc(C(C)(C)C)c(O)c(C(C)(C)C)c1 | – | inactive: -19.9% |
| COc1ccc(-c2nc(N3CCC(C)CC3)[nH]c(=O)c2C#N)cc1 | – | inactive: 6.72% |
| COC(=O)/C=C1\S/C(=N/NC(=O)c2ccccc2)NC1=O | active: 11.2 µM | – |
| O=C(Nc1ccncc1)c1cc([N+](=O)[O-])ccc1Cl | active: 8.91 µM | – |
| C[C@@H]1CNCCN1S(=O)(=O)c1cccc2cnccc12 | inconclusive: 35.5 µM [inhibitor, single point] | – |
| NC(=S)NNC(=O)c1ccccc1Cl | inconclusive: 22.4 µM [inhibitor, single point] | – |
| CCCCN(C)CCC(=O)Nc1ccc2c(c1)CCC2 | inconclusive: 20 µM [activator, single point] | – |
| CC(=O)/C(CN1CCCCC1)=N\O | – | inactive: -1.01% |
| COc1ccc(NC(=O)C23CC4CC(C2)CC(n2cnc(Br)n2)(C4)C3)cc1Cl | – | inactive: -1.89% |
| O=C(Nc1ccccc1-c1nnc(SCc2ccc(Cl)cc2)o1)c1ccccc1 | inconclusive: 1.26 µM [inhibitor, partial curve] | – |
| Cn1cnc([N+](=O)[O-])c1Sc1ccc(Br)cc1 | inconclusive: 3.55 µM [inhibitor, partial curve] | – |
| COC(=O)c1noc(-c2ccc(C)cc2)n1 | inconclusive: 0.447 µM [inhibitor, partial curve, poor fit] | – |
| CN(CCOCCOc1ccc2ccccc2c1)Cc1ccccc1 | inconclusive: 10 µM [inhibitor, partial curve, poor fit] | – |
| CCc1nnc(NC(=O)CC(C)c2ccccc2)s1 (configuration not stated) | inconclusive: 20 µM [activator, single point] | – |
| CN1CCN(C(=S)c2ccc(Br)cc2)CC1 | inconclusive: 0.447 µM [inhibitor, single point] | – |
| CCCCOc1cccc(C(=O)NC(=S)Nc2cccc(C(F)(F)F)c2)c1 | active: 4.47 µM | – |
| O=C(NCCc1ccc(C(F)(F)F)cc1)C1CCC(=O)N(CCc2cccc(F)c2)C1 (configuration not stated) | inconclusive: 12.6 µM [activator, partial curve, poor fit] | – |
| CCCCNC(=O)C1(O)c2ccccc2NC(=O)N1c1ccc(Cl)cc1 (configuration not stated) | – | inactive: 0.468% |
| O=C(Nc1cccc([N+](=O)[O-])c1)c1ccc2c(c1)OCCO2 | inconclusive: 1.26 µM [activator, full curve, poor fit] | – |
